Experimental data taken from PubChem BioAssay AID330 (DTP/NCI, 2004).
The list does not hold the whole screen: it gathers tests that were run many times, whatever their T/C, doses with no T/C, and many T/C values between a quarter and a half above the control. Further doses and runs are listed elsewhere. T/C is the treated group as % of the vehicle group. Some entries give survivors of the animals treated and no T/C: the source holds a T/C of zero for them, seemingly a mark for toxic or unscored doses. Some doses without a T/C left all or most animals alive at the check, yet need not have been tolerated: survival well below the control is almost never listed, so the zero probably covers shortened survival too. Counts of survivors are from the toxicity check (mostly the fifth day) where no day follows; animals may have died later. Schedules are NCI's codes, read here as Q, the interval in days (D) or hours (H), X, the number of doses. Some entries were tested several times; the results are listed from low to high. Where survival is the endpoint, this PubChem deposit counts one and a half times the control or more as active, and values a quarter to a half above the control carry no call in these data; other NCI protocols may use other cut-offs. Some T/C values are followed by the survivors on the day toxicity was checked, most often the fifth; without a count, all were alive then.

System: P388 leukemia ip, CD2F1 mice, survival T/C
Assay: NCI In Vivo Anticancer Drug Screen. Data for tumor model P388 Leukemia (intraperitoneal) in CD2F1 (CDF1) mice
Settings: T/C endpoint: median survival time, higher T/C = longer survival
[1] = dose: 12.5 mg/kg/injection, schedule: Q01DX005 (ip), vehicle: saline with Tween-80
[2] = dose: 25.0 mg/kg/injection, schedule: Q01DX005 (ip), vehicle: saline with Tween-80
[3] = dose: 50.0 mg/kg/injection, schedule: Q01DX005 (ip), vehicle: saline with Tween-80
[4] = dose: 100.0 mg/kg/injection, schedule: Q01DX005 (ip), vehicle: saline with Tween-80
[5] = dose: 200.0 mg/kg/injection, schedule: Q01DX005 (ip), vehicle: saline with Tween-80
[6] = dose: 400.0 mg/kg/injection, schedule: Q01DX009 (ip), vehicle: distilled water + Tween-80
[7] = dose: 100.0 mg/kg/injection, schedule: Q01DX009 (ip), vehicle: saline with Tween-80
[8] = dose: 200.0 mg/kg/injection, schedule: Q01DX009 (ip), vehicle: saline with Tween-80
[9] = dose: 25.0 mg/kg/injection, schedule: Q01DX009 (ip), vehicle: saline
[10] = dose: 120.0 mg/kg/injection, schedule: Q01DX005 (ip), vehicle: saline with Tween-80
[11] = dose: 200.0 mg/kg/injection, schedule: Q01DX009 (ip), vehicle: Klucel (hydroxypropylcellulose) (HPC)
[12] = dose: 6.25 mg/kg/injection, schedule: Q01DX005 (ip), vehicle: saline with Tween-80
[13] = dose: 200.0 mg/kg/injection, schedule: Q01DX009 (ip), vehicle: saline

SMILES: CC1CN=C(c2ccc(NC(=O)c3ccc(NC(=O)c4ccc(C5=NCC(C)N5)cc4)cc3)cc2)N1 (centres undefined)
- T/C [1]: 146 % of control
- T/C [2]: 129 [5 of 6 alive] and 146 % of control [5 of 6 alive]
- survivor count [3]: 0 of 6
- survivor count [4]: 0 of 6
- survivor count [5]: 0 of 6

SMILES: CC[C@@]1(O)C(=O)OCc2c1cc1n(c2=O)Cc2cc3cc(O)ccc3nc2-1
- T/C (dose: 0.39 mg/kg/injection, schedule: Q04DX003 (ip), vehicle: other): 142 % of control
- survivor count (dose: 6.25 mg/kg/injection, schedule: Q04DX003 (ip), vehicle: other): 6 of 6
- survivor count (dose: 8.0 mg/kg/injection, schedule: Q04DX003 (ip), vehicle: other): 3 of 6
- survivor count (dose: 12.5 mg/kg/injection, schedule: Q04DX003 (ip), vehicle: other): 5 of 6

SMILES: CC(=O)Oc1c[nH]c(=O)[nH]c1=O
- T/C [6]: 134 % of control
- survivor count (dose: 600.0 mg/kg/injection, schedule: Q01DX009 (ip), vehicle: distilled water + Tween-80): 6 of 6

SMILES: C(=C\c1cc2cc(C3=NCCN3)ccc2o1)/c1cc2cc(C3=NCCN3)ccc2o1
- T/C (dose: 100.0 mg/kg/injection, schedule: Q04DX003 (ip), vehicle: saline): 140 % of control
- T/C (dose: 200.0 mg/kg/injection, schedule: Q04DX003 (ip), vehicle: saline): 137 % of control
- survivor count (dose: 200.0 mg/kg/injection, schedule: Q04DX003 (ip), vehicle: suspension in saline): 4 of 6
- survivor count (dose: 400.0 mg/kg/injection, schedule: Q04DX003 (ip), vehicle: saline): 0 of 6

SMILES: CCn1c(Cl)c(/C=C2/N=C(c3ccccc3)OC2=O)c2ccccc21
- survivor count (dose: 100.0 mg/kg/injection, schedule: Q01DX001 (ip), vehicle: saline with Tween-80): 6 of 6
- survivor count (dose: 200.0 mg/kg/injection, schedule: Q01DX001 (ip), vehicle: Klucel (hydroxypropylcellulose) (HPC)): 6 of 6

SMILES: Cc1ccc2c(/C=C/c3ccc(N(C)C)cc3)ccnc2c1C
- T/C (dose: 25.0 mg/kg/injection, schedule: Q01DX009 (ip), vehicle: saline with Tween-80): 133 % of control

SMILES: CN=C(N)N/N=C(\C)c1ccc2c(ccc3ccccc32)c1
- T/C (dose: 25.0 mg/kg/injection, schedule: Q04DX002 (ip), vehicle: saline with Tween-80): 125 and 138 % of control
- T/C (dose: 50.0 mg/kg/injection, schedule: Q04DX002 (ip), vehicle: saline with Tween-80): 125 and 134 % of control
- T/C (dose: 100.0 mg/kg/injection, schedule: Q04DX002 (ip), vehicle: saline with Tween-80): 134 % of control
- survivor count (dose: 200.0 mg/kg/injection, schedule: Q04DX002 (ip), vehicle: saline with Tween-80): 4 of 6

SMILES: CC1CCC(C(C)C)C2(C1)OC(CCl)CS2 (centres undefined)
- survivor count [7]: 4 of 6
- survivor count [8]: 3 of 6

SMILES: C1CCC2[N-]CC3CCCCC3[N-]CC3CCCCC3[N-]CC3CCCCC3[N-]CC2C1.[Ni+2].[O-][Cl+3]([O-])([O-])O (centres undefined)
- survivor count (dose: 12.5 mg/kg/injection, schedule: Q01DX009 (ip), vehicle: saline): 0 of 6
- survivor count [9]: 0 of 6
- survivor count (dose: 50.0 mg/kg/injection, schedule: Q01DX009 (ip), vehicle: saline): 0 of 6

SMILES: C=CCOc1cc2c(cc1C/C=C/c1cc(OC)c(OC)c(OC)c1)OCO2
- survivor count [10]: 6 of 6
- survivor count (dose: 240.0 mg/kg/injection, schedule: Q01DX005 (ip), vehicle: saline with Tween-80): 6 of 6

SMILES: ClCc1nnc(-c2ccccc2)o1
- survivor count [11]: 5 of 6

SMILES: COc1cc(NC(C)CCCN)c2nc(C)ccc2c1Oc1ccc(F)cc1 (centres undefined)
- survivor count (dose: 50.0 mg/kg/injection, schedule: Q01DX009 (ip), vehicle: water): 0 of 6
- survivor count (dose: 100.0 mg/kg/injection, schedule: Q01DX009 (ip), vehicle: water): 0 of 6
- survivor count (dose: 200.0 mg/kg/injection, schedule: Q01DX009 (ip), vehicle: water): 0 of 6

SMILES: Nn1cnnc1N/N=C\c1ccc(N(CCCl)CCCl)cc1
- T/C [9]: 140 and 146 % of control

SMILES: CN(C)c1ccc(C(=C2C=CC(=[N+](C)c3ccccc3)c3ccccc32)c2ccc(N(C)C)cc2)cc1
- T/C (dose: 3.12 mg/kg/injection, schedule: Q01DX005 (ip), vehicle: saline with Tween-80): 129 % of control
- T/C [12]: 125 % of control
- survivor count [12]: 6 of 6
- survivor count [1]: 0 of 6 and 4 of 5
- survivor count [2]: 0 of 5
- survivor count [3]: 0 of 5
- survivor count [4]: 0 of 5
- survivor count [5]: 0 of 5

SMILES: CCCCCC(O)C1C(=O)OC(C)C(O)/C=C/C=C/C=C/C=C\C=C(\C)C(O)CC(O)CC(O)CC(O)CC(O)CC(O)CC1O (centres undefined)
- survivor count (dose: 40.0 mg/kg/injection, schedule: Q04DX003 (ip), vehicle: other): 0 of 6

SMILES: Cc1ccc(S(=O)(=O)N/N=C/C(Br)=C(/Br)C(=O)O)cc1
- T/C (dose: 12.5 mg/kg/injection, schedule: Q01DX009 (ip), vehicle: distilled water + Tween-80): 136 and 137 % of control
- survivor count [6]: 1 of 6

SMILES: CN(C)CCC(=O)c1cccc([N+](=O)[O-])c1
- survivor count [13]: 1 of 6

SMILES: CNC(=O)Nc1nc2ccccc2[nH]1
- T/C (dose: 200.0 mg/kg/injection, schedule: Q04DX003 (ip), vehicle: Klucel (hydroxypropylcellulose) (HPC)): 128 % of control
- T/C (dose: 400.0 mg/kg/injection, schedule: Q04DX003 (ip), vehicle: Klucel (hydroxypropylcellulose) (HPC)): 130 % of control

SMILES: COc1nc(Cl)cn(C)c1=O
- survivor count (dose: 240.0 mg/kg/injection, schedule: Q01DX005 (ip), vehicle: Klucel (hydroxypropylcellulose) (HPC)): 1 of 6

SMILES: COc1ccc(-n2[nH]c3c(cnc4ccccc43)c2=O)cc1
- survivor count (dose: 60.0 mg/kg/injection, schedule: Q01DX005 (ip), vehicle: saline with Tween-80): 6 of 6
- survivor count [10]: 6 of 6

SMILES: C#CCC(B1OCCO1)B1OCCO1
- survivor count (dose: 100.0 mg/kg/injection, schedule: Q01DX001 (ip), vehicle: saline): 5 of 6

SMILES: COc1ccc(C=C2C(=O)N(C)C(=O)N(C)C2=O)cc1
- T/C [8]: 126 % of control
- survivor count (dose: 400.0 mg/kg/injection, schedule: Q01DX009 (ip), vehicle: saline with Tween-80): 5 of 6

SMILES: CCCCOC(=O)NC(=O)c1cc2cc(Cl)cc(Cl)c2oc1=O
- survivor count [5]: 1 of 6

SMILES: O=C(CN1CCCCC1)Nc1ccc(Br)cc1
- survivor count (dose: 100.0 mg/kg/injection, schedule: Q01DX009 (ip), vehicle: saline): 6 of 6
- survivor count [13]: 3 of 6
- survivor count (dose: 400.0 mg/kg/injection, schedule: Q01DX009 (ip), vehicle: saline): 3 of 6

SMILES: CCSc1nc2ccc(N=Cc3ccccc3O)cc2s1
- survivor count [11]: 5 of 6

SMILES: CCCCCCCCCCCCCCCCS(=O)CC(O)COC(=O)c1ccc(C(=O)OCC(O)CS(=O)CCCCCCCCCCCCCCCC)cc1 (centres undefined)
- T/C (dose: 200.0 mg/kg/injection, schedule: Q01DX009 (ip), vehicle: other): 129 % of control
- T/C (dose: 400.0 mg/kg/injection, schedule: Q01DX009 (ip), vehicle: other): 138 % of control

SMILES: COc1ccc(C(=O)Nc2ccccc2CCC2CCCCN2C)cc1 (centres undefined)
- survivor count (dose: 50.0 mg/kg/injection, schedule: Q01DX009 (ip), vehicle: suspension in saline): 1 of 6
- survivor count (dose: 100.0 mg/kg/injection, schedule: Q01DX009 (ip), vehicle: suspension in saline): 0 of 6

SMILES: CC1=CC(C)=C(C#N)C2=S=C(c3ccccc3)C(=O)N12
- survivor count [3]: 5 of 5

SMILES: O=NN(CCCl)C(=O)Nc1ccc(I)cc1
- T/C (dose: 1.32 mg/kg/injection, schedule: Q01DX009 (ip), vehicle: saline with Tween-80): 145 % of control
- T/C (dose: 2.0 mg/kg/injection, schedule: Q01DX009 (ip), vehicle: saline with Tween-80): 136 % of control
- T/C (dose: 3.13 mg/kg/injection, schedule: Q04DX003 (ip), vehicle: saline with Tween-80): 136 % of control
- T/C (dose: 12.5 mg/kg/injection, schedule: Q04DX003 (ip), vehicle: saline sonified): 141 % of control
- survivor count [7]: 6 of 6
